Assay results taken from article PMC10854748.
These are yes or no findings as the source states them, for the method shown. In cells and extracts the contact can be indirect. These calls come from enrichment with a bait or labelling near it, and not all partners need be listed. Tags and fused reporters may be left off the sequences shown.

Molecular target: N-terminally FLAG-HA epitope-tagged human HIRIP3 (e-HIRIP3) (human) (UniProt Q9BW71)
Assay: affinity purification with mass spectrometry; tandem anti-FLAG then anti-HA immunoaffinity purification of e-HIRIP3 from HeLa cytosolic, soluble nuclear and MNase-solubilised chromatin extracts; washes in TGEN-150 (20 mM Tris-HCl pH 7.65, 150 mM NaCl); silver staining and Orbitrap mass spectrometry

B1: AMP deaminase (AMPD2) (enzyme, UniProt Q01433 1-825)
chain: MASYPSGSGKPKAKYPFKKRASLQASTAAPEARGGLGAPPLQSARSLPGPAPCLKHFPLDLRTSMDGKCKEIAEELFTRSLAESELRSAPYEFPEESPIEQLEERRQRLERQISQDVKLEPDILLRAKQDFLKTDSDSDLQLYKEQGEGQGDRSLRERDVLEREFQRVTISGEEKCGVPFTDLLDAAKSVVRALFIREKYMALSLQSFCPTTRRYLQQLAEKPLETRTYEQGPDTPVSADAPVHPPALEQHPYEHCEPSTMPGDLGLGLRMVRGVVHVYTRREPDEHCSEVELPYPDLQEFVADVNVLMALIINGPIKSFCYRRLQYLSSKFQMHVLLNEMKELAAQKKVPHRDFYNIRKVDTHIHASSCMNQKHLLRFIKRAMKRHLEEIVHVEQGREQTLREVFESMNLTAYDLSVDTLDVHADRNTFHRFDKFNAKYNPIGESVLREIFIKTDNRVSGKYFAHIIKEVMSDLEESKYQNAELRLSIYGRSRDEWDKLARWAVMHRVHSPNVRWLVQVPRLFDVYRTKGQLANFQEMLENIFLPLFEATVHPASHPELHLFLEHVDGFDSVDDESKPENHVFNLESPLPEAWVEEDNPPYAYYLYYTFANMAMLNHLRRQRGFHTFVLRPHCGEAGPIHHLVSAFMLAENISHGLLLRKAPVLQYLYYLAQIGIAMSPLSNNSLFLSYHRNPLPEYLSRGLMVSLSTDDPLQFHFTKEPLMEEYSIATQVWKLSSCDMCELARNSVLMSGFSHKVKSHWLGPNYTKEGPEGNDIRRTNVPDIRVGYRYETLCQELALITQAVQSEMLETIPEEAGITMSPGPQ
- binding: binds
